Measured values taken from PubChem BioAssay AID540256 (National Center for Advancing Translational Sciences (NCATS), 2011).
Screen size: about 300,000 compounds; about 3,700 (1.2%) were called active. Inconclusive results, whose numbers are uncertain, are shown with a selection of clear calls. Calls come from the whole dose curve; tested in HEK293 cells. Where the call is inconclusive, the potency comes from a doubtful curve fit.

test: qHTS for Inhibitors of binding or entry into cells for Lassa Virus; settings: Lassa virus pseudotype entry inhibition, cell reporter; activity change, negative = inhibition: at 37.9 µM (top of the series) unless noted; note: nearly all actives have a fitted effect of over 50% in size
% is set by controls: 0 for no effect and ±100 for the full control effect; potency is the fitted concentration of half-maximal effect.

SMILES | Potency | activity change, negative = inhibition
Cc1ccc(NC(=O)CC2C(=O)N(Cc3ccccc3)C(=S)N2NC(=O)c2cccc(F)c2)c(C)c1 (centres undefined) | inconclusive: 35.5 µM [inhibitor, single point] | –
CN(C(=O)CCN1C(=O)/C(=C/c2ccccc2F)SC1=S)C1CCS(=O)(=O)C1 (centres undefined) | inconclusive: 35.5 µM [inhibitor, single point] | –
NS(=O)(=O)c1ccc(NC(=O)c2ccc(S(=O)(=O)N3CCCCCC3)cc2)cc1 | – | inactive: -6.25%
CCN(CC(=O)NCc1cccs1)C(=O)c1cccc(S(=O)(=O)NCc2ccccc2)c1 | inconclusive: 28.2 µM [inhibitor, partial curve, poor fit] | –
Cc1ccc(C)c(NC(=O)N2CC=C(c3c[nH]c4ccccc34)CC2)c1 | – | inactive: -7.96% [at 46.1 µM]
CCOC(=O)c1cnn(-c2ccccc2)c1-n1cccc1 | – | inactive: -7.33%
CCc1noc(C)c1C(=O)Nc1nc2ccc(F)cc2s1 | – | inactive: 15%
CCC(=O)N1CCc2cc(Br)cc(S(=O)(=O)NCCc3ccccc3Cl)c21 | inconclusive: 35.5 µM [inhibitor, single point] | –
Cc1ccc(-c2c(C(=O)N3CCN(c4cccc(C)c4C)CC3)oc(=O)c3ccccc23)cc1 | inconclusive: 35.5 µM [inhibitor, single point] | –
CC(=O)c1cccc(NC(=O)c2cnn(-c3cccc(C)c3)c2-n2cccc2)c1 | inconclusive: 5.62 µM [inhibitor, single point] | –
Cc1ccc(-c2noc(C3CCCN(S(=O)(=O)c4ccc5ccccc5c4)C3)n2)o1 (centres undefined) | – | inactive: 5.29%
CC(C)=CCN1CCNC(=O)C1CC(=O)NCc1nc(C)c(C)s1 (centres undefined) | – | inactive: -12.4% [at 46.1 µM]
Cc1cccc(NC(=O)CSCC(=O)Nc2ccc(S(=O)(=O)N3CCCCC3)cc2)c1 | inconclusive: 20 µM [inhibitor, partial curve, poor fit] | –
CCc1ccccc1NC(=O)CN(Cc1ccccc1)S(=O)(=O)c1ccc2nc(C)sc2c1 | – | inactive: 27.1% [at 46.1 µM]
CCc1nnc(NC(=O)CCS(=O)(=O)c2ccc(C)cc2)s1 | – | inactive: -7.97%
COc1ccc2cc(-c3c(-c4ccncc4)nc(-c4ccc(S(C)=O)cc4)n3C)ccc2c1 (centres undefined) | inconclusive: 15.8 µM [inhibitor, partial curve, poor fit] | –
CC(C)=CC(=O)Nc1nnc(-c2ccccc2)s1 | inconclusive: 2.59 µM [activator, full curve] | –
O=C(Cn1c(-c2cccs2)cc2cc(Cl)ccc21)NCc1ccccc1 | – | inactive: 2.83% [at 46.1 µM]
CCOC(=O)C1(Cc2ccc(Cl)cc2)CCN(C(=O)C2CCCO2)CC1 (centres undefined) | inconclusive: 5.62 µM [activator, single point] | –
CC(C)c1ccccc1OCCNC(=O)c1cncc(Br)c1 | inconclusive: 35.5 µM [inhibitor, single point] | –
COc1ccc(C(CNC(=O)c2ccc(-c3cccc(C(F)(F)F)c3)o2)N2CCOCC2)cc1 (centres undefined) | – | inactive: -26.5% [at 46.1 µM]
CC12CCC3C(CCC4C/C(=N/O)CCC43C)C1CCC2O (centres undefined) | – | inactive: 15.7%

Among those listed so far, six contain two or more sulfur atoms:
SMILES | Potency | activity change, negative = inhibition
CN(C(=O)CCN1C(=O)/C(=C/c2ccccc2F)SC1=S)C1CCS(=O)(=O)C1 (centres undefined) | inconclusive: 35.5 µM [inhibitor, single point] | –
NS(=O)(=O)c1ccc(NC(=O)c2ccc(S(=O)(=O)N3CCCCCC3)cc2)cc1 | – | inactive: -6.25%
CCN(CC(=O)NCc1cccs1)C(=O)c1cccc(S(=O)(=O)NCc2ccccc2)c1 | inconclusive: 28.2 µM [inhibitor, partial curve, poor fit] | –
Cc1cccc(NC(=O)CSCC(=O)Nc2ccc(S(=O)(=O)N3CCCCC3)cc2)c1 | inconclusive: 20 µM [inhibitor, partial curve, poor fit] | –
CCc1ccccc1NC(=O)CN(Cc1ccccc1)S(=O)(=O)c1ccc2nc(C)sc2c1 | – | inactive: 27.1% [at 46.1 µM]
CCc1nnc(NC(=O)CCS(=O)(=O)c2ccc(C)cc2)s1 | – | inactive: -7.97%

Next compounds.

SMILES | Potency | activity change, negative = inhibition
Cn1c(N)c(C(=O)COC(=O)CNS(=O)(=O)c2cccc(Cl)c2)c(=O)n(C)c1=O | inconclusive: 6.51 µM [inhibitor, partial curve, poor fit] | –
CN(CCc1ccccn1)Cc1ccc(Cl)cc1Cl | – | inactive: 5.04%
Cc1cc(C)c(C(=O)COC(=O)Cn2cnnn2)cc1C | – | inactive: -10.9%
Cc1ccc(-n2ncc3c2CC(C)(C)CC3NC(=O)CCc2c(C)noc2C)cc1 (centres undefined) | inconclusive: 0.631 µM [inhibitor, full curve, poor fit] | –
COc1cccc(C(=O)NC2CCCc3c2cnn3-c2cc(C)cc(C)c2)c1 (centres undefined) | inconclusive: 11.2 µM [inhibitor, partial curve, poor fit] | –
CCOC(=O)c1cc(-c2ccc(F)cc2)n(CCC(=O)NC2CCN(Cc3ccccc3)CC2)c1C | inconclusive: 29.1 µM [inhibitor, single point] | –
Cc1onc(-c2c(F)cccc2Cl)c1C(=O)OCC(=O)NC(c1ccccc1)c1ccccc1 | inconclusive: 16.4 µM [inhibitor, partial curve] | –
O=C(OCc1ccc(COC(=O)c2ccc(O)cc2)cc1)c1ccc(O)cc1 | inconclusive: 3.16 µM [inhibitor, partial curve, poor fit] | –
Nc1cccc(C(=O)OCC(=O)Nc2cccc3c2C(=O)c2ccccc2C3=O)c1 | inconclusive: 8.91 µM [inhibitor, partial curve] | –
COc1ccc(CCNC(=O)CCc2c(C)nc3cc(-c4ccccc4)nn3c2C)cc1OC | inconclusive: 35.5 µM [inhibitor, single point] | –
C/C(=N\NC(=O)c1ccco1)c1cc2ccccc2o1 | – | inactive: 14.5%
O=S(=O)(Nc1cccc2ncccc12)c1cccs1 | inconclusive: 17.8 µM [inhibitor, partial curve, poor fit] | –
Cc1ccc(-c2cc(C(=O)NCc3ccccn3)c3ccccc3n2)cc1 | inconclusive: 35.5 µM [inhibitor, single point] | –
N#Cc1c(-c2ccccc2)cc(-c2ccccc2)nc1SCCC(=O)O | inconclusive: 35.5 µM [inhibitor, single point] | –
O=C(CCC1CCCN(C(=O)c2ccsc2)C1)NCc1ccc(F)c(F)c1 (centres undefined) | inconclusive: 1.26 µM [inhibitor, single point] | –
CCN1C(=O)c2cccc3c(S(=O)(=O)NCc4cccnc4)ccc1c23 | – | inactive: -14.4%
Cc1ccc(S(=O)(=O)N/N=C/c2cccn2-c2ccc(Cl)cc2)cc1 | inconclusive: 1.26 µM [activator, single point] | –
Fc1ccccc1Cn1nnc(-c2ccc3c(c2)OCO3)n1 | inconclusive: 29.1 µM [inhibitor, single point] | –
Cc1ccsc1C(=O)OCC(=O)N(Cc1ccccc1)C(C)C | – | inactive: 14.1% [at 46.1 µM]
S=C(NCCCCNC(=S)NCc1ccccc1)NCc1ccccc1 | – | inactive: -28.3% [at 46.1 µM]
COc1ccc(OC)c(CCNC(=O)c2cc3c(-c4ccccc4F)nn(C)c3s2)c1 | inconclusive: 14.1 µM [inhibitor, single point] | –
COC(=O)c1sc(-c2ccc(Cl)cc2)cc1NC(=O)/C=C/C(=O)O | inconclusive: 35.5 µM [inhibitor, single point] | –
